# Out of some 360,000 compounds screened, about 9,100 (2.5%) were called active. The shares of active, inactive and inconclusive entries below differ from those in the screen. Cut-off read from the data, not from the text of the source: active = max response below about -50%; inconclusive = no clear call, values can overlap the other calls; inactive = above that.
# Chains of the proteins cited; added tags and fusions are not shown.
# UniProt P35462, whole entry, looked up: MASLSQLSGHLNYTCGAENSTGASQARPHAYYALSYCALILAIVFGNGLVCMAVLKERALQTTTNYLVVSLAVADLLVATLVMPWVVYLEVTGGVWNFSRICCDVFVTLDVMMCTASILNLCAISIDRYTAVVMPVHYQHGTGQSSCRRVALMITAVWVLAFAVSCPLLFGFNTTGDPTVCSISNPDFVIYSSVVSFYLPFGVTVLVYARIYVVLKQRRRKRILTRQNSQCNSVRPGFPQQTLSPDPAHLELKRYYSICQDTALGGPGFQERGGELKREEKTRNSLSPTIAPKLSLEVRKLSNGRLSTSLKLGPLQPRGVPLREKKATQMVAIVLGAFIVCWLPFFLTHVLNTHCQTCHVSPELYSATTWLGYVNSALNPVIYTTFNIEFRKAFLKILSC
# Molecular target: D(3) dopamine receptor (Homo sapiens) (UniProt P35462)
# Experiment: qHTS of D3 Dopamine Receptor Antagonist: qHTS
# Settings: D3R cells, DiscoveRx beta-arrestin luminescence, antagonist mode; active compounds read low
# How it was run: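 Cells expressing the human receptor were seeded at 1500 cells/well, incubated overnight at 37 degrees C in 5% CO2, then exposed to library compounds with dopamine controls for 90 minutes at 37 degrees C before luminescent detection.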
# % is set by controls: 0 for no effect and ±100 for the full control effect.
row,Structure (SMILES),"max response, negative = inhibition"
1,Cc1ccc(CN2CCN(Cc3ccco3)CC2)cc1,inconclusive: -32.7%
2,N#CC1=C(N)C(C#N)(C#N)[C@H](c2cccnc2)[C@H]2CN(C(=O)OCc3ccccc3)CC=C12,inconclusive: -32.6%
3,CC1CCc2ccccc2N1C(N)=Nc1ccccc1 (stereo not drawn),inconclusive: -35.2%
4,O=C(O)CCCCCCCCc1cn(CN2C(=O)c3ccccc3C2=O)nn1,inconclusive: -38.1%
5,CS/C(N)=N/N=C/c1cc(Br)cc(Br)c1O,inconclusive: -31.8%
6,COc1ccc2cc(CN(CC3CCCO3)C(=S)Nc3ccccc3)c(=O)[nH]c2c1 (stereo not drawn),inconclusive: -32.6%
7,Cc1ccc(S(=O)(=O)CCC(=O)c2cccc([N+](=O)[O-])c2)cc1,inconclusive: -40.6%
8,O=C(O)CC(NC(=O)OCc1ccccc1)c1ccc(Br)cc1 (stereo not drawn),inconclusive: -33.2%
9,CCN1CCN(C(c2cc(OC)ccc2OC)c2nnnn2Cc2ccccc2)CC1 (stereo not drawn),inconclusive: -39%
10,CCCSc1ccc([C@@H]2[C@H]3C(=O)N(CC)C(=O)[C@H]3[C@]3(C(=O)OC)CCCN23)cc1OC,inconclusive: -30.8%
11,O=C(NCC(c1cccs1)N1CCOCC1)c1ccc(Cl)cc1 (stereo not drawn),inconclusive: -33%
12,CNC(=O)c1c(NC(=O)c2ccc(S(=O)(=O)N3CCCc4ccccc43)cc2)sc2c1CCN(C)C2,inconclusive: -36%
13,CC1CCCN(S(=O)(=O)c2ccc(C(=O)Nc3nnc(-c4ccncc4)o3)cc2)C1 (stereo not drawn),inconclusive: -31.1%
14,CN(CCOC(=O)c1ccc2c(c1)OCCO2)Cc1ccccc1,active: -78.9%
15,OC(CNCc1ccc(Cl)cc1)COc1ccccc1 (stereo not drawn),inconclusive: -44.1%
16,COc1cc([N+](=O)[O-])cc(/C=N/NC(=O)C(O)(c2ccccc2)c2ccccc2)c1O,active: -54.7%
17,Cc1ccc(S(=O)(=O)N(C)c2ccc(N)cc2)cc1,inconclusive: -44.1%
18,Cc1ccccc1NC(=O)CN1C(=O)S/C(=C\c2ccc(-c3cc(C(=O)O)ccc3C)o2)C1=O,inconclusive: -31.3%
19,C=C1C(=O)C23C(O)C1CCC2C12CCCC(C)(COC(C)=O)C1C(O)C3(O)OC2 (stereo not drawn),active: -95%
20,COc1ccccc1N(CC(=O)N/N=C(\C)c1ccccc1O)S(=O)(=O)c1ccc(C)cc1,inconclusive: -31.7%
21,CN(C)/C(=N\S(=O)(=O)c1ccccc1)c1ccccc1,inconclusive: -47%
22,CN(C(=O)CCS(=O)(=O)c1cc2c(cc1Cl)NC(=O)CO2)C1CCCCC1,inactive: 0%

# Part of the list above, bar-delimited:
row | Structure (SMILES) | max response, negative = inhibition
8 | O=C(O)CC(NC(=O)OCc1ccccc1)c1ccc(Br)cc1 (stereo not drawn) | inconclusive: -33.2%
9 | CCN1CCN(C(c2cc(OC)ccc2OC)c2nnnn2Cc2ccccc2)CC1 (stereo not drawn) | inconclusive: -39%
10 | CCCSc1ccc([C@@H]2[C@H]3C(=O)N(CC)C(=O)[C@H]3[C@]3(C(=O)OC)CCCN23)cc1OC | inconclusive: -30.8%
11 | O=C(NCC(c1cccs1)N1CCOCC1)c1ccc(Cl)cc1 (stereo not drawn) | inconclusive: -33%
12 | CNC(=O)c1c(NC(=O)c2ccc(S(=O)(=O)N3CCCc4ccccc43)cc2)sc2c1CCN(C)C2 | inconclusive: -36%
13 | CC1CCCN(S(=O)(=O)c2ccc(C(=O)Nc3nnc(-c4ccncc4)o3)cc2)C1 (stereo not drawn) | inconclusive: -31.1%
14 | CN(CCOC(=O)c1ccc2c(c1)OCCO2)Cc1ccccc1 | active: -78.9%
15 | OC(CNCc1ccc(Cl)cc1)COc1ccccc1 (stereo not drawn) | inconclusive: -44.1%
16 | COc1cc([N+](=O)[O-])cc(/C=N/NC(=O)C(O)(c2ccccc2)c2ccccc2)c1O | active: -54.7%
17 | Cc1ccc(S(=O)(=O)N(C)c2ccc(N)cc2)cc1 | inconclusive: -44.1%
18 | Cc1ccccc1NC(=O)CN1C(=O)S/C(=C\c2ccc(-c3cc(C(=O)O)ccc3C)o2)C1=O | inconclusive: -31.3%

# Carrying on:

row,Structure (SMILES),"max response, negative = inhibition"
1,O=C(Nc1ccc(F)cc1)C(c1ccncc1)N1CCN(c2cccc(C(F)(F)F)n2)CC1 (stereo not drawn),inactive: 22%
2,CC(=O)c1cc2c(cc1NS(=O)(=O)c1ccccc1F)OCO2,inactive: -2.24%
3,COc1ccc(-c2csc3ncnc(N4CCN(c5cccc(Cl)c5)CC4)c23)cc1,inactive: 67.2%
4,CC(C)N(Cc1ccccc1)C(=O)C1CCN(c2ncnc3c2nc2n3CCCCC2)CC1,inactive: 7.34%
5,CCCC1(CCC)NC(=O)N(CC(=O)N2CCc3ccccc32)C1=O,inactive: -18.7%
6,NC(=S)N/N=C\c1ccccc1OCc1ccccc1,active: -53.8%
7,CC1=NN(C(=O)c2ccccc2-n2cccc2)C(O)(C(F)(F)F)C1 (stereo not drawn),inactive: -15.8%
8,O=C(Nc1ccc(N2CCN(Cc3ccccc3)CC2)cc1)c1ccccc1[N+](=O)[O-],inconclusive: -41.5%
9,Cc1sc(NC(=O)/C=C/C(=O)O)c(C(N)=O)c1-c1ccc(C(C)(C)C)cc1,inconclusive: -31.8%
10,Cc1cccc(NC(=O)COC(=O)c2ccc3nc(C)c(C)nc3c2)c1,active: -57.9%
11,COc1ccc(-n2c(SCC(=O)Nc3cccc(S(N)(=O)=O)c3)nc3ccccc3c2=O)cc1OC,inactive: 5.79%
12,OC(COc1ccccc1Cl)CN1CCN(CC(O)COc2ccccc2Cl)CC1 (stereo not drawn),inconclusive: -32.4%
13,CCOC(=O)C1=C(C)N=c2s/c(=C/c3cccc([N+](=O)[O-])c3O)c(=O)n2C1c1cc(OC)c(OC)c(OC)c1 (stereo not drawn),inconclusive: -31.3%
14,CC(C)COc1ccc(CSCCNC(=S)Nc2ccccc2)cc1,inactive: 0%
15,Cc1cccc(-c2nsc(SCC(=O)N3CCCC3)n2)c1,inactive: 12.5%
16,Cc1ccc(NC(=O)c2nc[nH]c2C(=O)N[C@@H](C)C(=O)OC(C)(C)C)cc1,inconclusive: -30.5%
17,COc1ccc(-c2csc(NC(=O)CSc3nnc(Nc4ccccc4C)s3)n2)cc1,inactive: 27.1%
18,Cc1cc2cc(CNC(=O)c3ccc(S(=O)(=O)N4CCOCC4)cc3)ccc2[nH]1,inconclusive: -36.8%
19,O=C(C1CC1)N1CCN(c2ccc([N+](=O)[O-])cc2-n2cccc2)CC1,inconclusive: -43.5%
20,COc1ccc(NC(=S)N/C(=N/CS(=O)(=O)c2ccccc2)c2ccccc2)cc1,inconclusive: -47.5%
21,O=C(Nc1cccc(NC(=O)c2cccs2)c1)c1ccc(Br)o1,inconclusive: -49.2%
